Measured values as given in publication PMC5386588.
The exact form of at least one protein or probe is not confirmed. At least one result comes from cells or an extract, where the contact may be indirect. For some of these results: A negative result means that nothing was seen under these conditions.

By UniProt entry, the sequences of proteins in these tests, tags left out.
UniProt Q9Y5X4, whole entry R309G: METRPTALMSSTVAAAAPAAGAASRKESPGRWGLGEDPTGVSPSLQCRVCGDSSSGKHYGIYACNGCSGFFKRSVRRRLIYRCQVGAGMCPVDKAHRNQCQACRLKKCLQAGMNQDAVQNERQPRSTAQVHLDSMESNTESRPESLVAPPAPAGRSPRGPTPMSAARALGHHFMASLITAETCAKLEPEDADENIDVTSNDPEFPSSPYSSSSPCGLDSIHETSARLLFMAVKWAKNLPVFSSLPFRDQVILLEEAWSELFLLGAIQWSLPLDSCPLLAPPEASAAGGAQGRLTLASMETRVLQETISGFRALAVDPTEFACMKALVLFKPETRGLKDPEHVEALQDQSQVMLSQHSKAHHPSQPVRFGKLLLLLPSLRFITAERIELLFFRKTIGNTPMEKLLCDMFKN

Key:
Assay in all cases: EMSA
PNR R309G + PPARγ = conditions: co-expression, supershifted by anti-PNR or anti-PPARγ/FLAG; EMSA: HEK293 nuclear extract with 1 µl 32P-labelled probe (100,000 cpm/µl); protein in a lysate after overexpression; protein details: N-terminal His6,FLAG; label: 5'-32P
PPARγ + RXRα = conditions: co-expression, supershifted by anti-FLAG; EMSA: HEK293 nuclear extract with 1 µl 32P-labelled probe (100,000 cpm/µl); protein in a lysate after overexpression; protein details: FLAG; label: 5'-32P
PNR R309G (human) = PNR R309G (human) (UniProt Q9Y5X4); conditions: R309G alone, with or without anti-PNR; EMSA: HEK293 nuclear extract with 1 µl 32P-labelled probe (100,000 cpm/µl); protein in a lysate after overexpression; residues 1-410; protein details: N-terminal His6; label: 5'-32P
PNR wild type (human) = PNR wild type (human) (UniProt Q9Y5X4); conditions: supershifted by anti-PNR; EMSA: HEK293 nuclear extract with 1 µl 32P-labelled probe (100,000 cpm/µl); protein in a lysate after overexpression; residues 1-410; protein details: N-terminal His6; label: 5'-32P

Does “GGTAAAGGTCAAAGGTCAAT (double strand) [DR1 (PPRE) probe]” bind (PNR R309G + PPARγ)?
Result: binds

Does “GGTAAAGGTCAAAGGTCAAT (double strand) [DR1 (PPRE) probe]” bind (PPARγ + RXRα)?
Result: binds

Does “GGTAAAGGTCAAAGGTCAAT (double strand) [DR1 (PPRE) probe]” bind (PNR R309G (human))?
Result: no binding

Does “GGTAAAGGTCAAAGGTCAAT (double strand) [DR1 (PPRE) probe]” bind (PNR wild type (human))?
Result: binds
